Publication PMC5825207
No constants are given. Whether binding was seen depends on the method and setting. For some of these results: Binding seen in cells or lysates may run through a third protein. Some results given as binding are weak or reduced against the parent protein; the word gives no strength.

Columns and labels:
[1] = molecular target: FLAG-tagged p53 (UniProt P04637); assay: pull-down; in vitro binding of recombinant human SIRT6 and FLAG-p53 eluted from HEK293 cells; p53 pulled down, Western blot; both purified
[2] = molecular target: FLAG-tagged p53 (UniProt P04637); assay: co-IP; FLAG-tagged SIRT6 or FLAG-tagged p53 ectopically expressed individually in HEK293 cells; FLAG immunoprecipitates blotted for the endogenous partner
[3] = molecular target: p53 (endogenous, HEK293 cells) (human (endogenous in HEK293)) (UniProt P04637); assay: co-IP; endogenous proteins in HEK293 cells without external DNA damage; reciprocal, antibodies against SIRT6 and p53 with IgG controls; lysis in RIPA buffer with 250 mM or 500 mM NaCl, agarose beads overnight at 4°C, washes with RIPA (500 mM NaCl); Western blot
[4] = molecular target: FLAG-tagged full length SIRT6 (UniProt Q8N6T7); assay: co-IP; FLAG-tagged SIRT6 or FLAG-tagged p53 ectopically expressed individually in HEK293 cells; FLAG immunoprecipitates blotted for the endogenous partner

For “recombinant human SIRT6 (from UniProt Q8N6T7 1-355) (enzyme)”, the binding [1] was “binds”.

With “SIRT6 (endogenous, HEK293 cells) (from UniProt Q8N6T7 1-355) (enzyme)” the binding [2] was “binds” and the binding [3] was “binds”.

With “p53 (endogenous, HEK293 cells) (from UniProt P04637 1-393)” the binding [4] was “binds”.
